# Source: patent US20150166666A1
# The chains behind the UniProt entries cited, without tags or fusion partners. Where a name states a change or a piece, a line headed by the entry shows the natural chain unless it says otherwise.
# UniProt P08887: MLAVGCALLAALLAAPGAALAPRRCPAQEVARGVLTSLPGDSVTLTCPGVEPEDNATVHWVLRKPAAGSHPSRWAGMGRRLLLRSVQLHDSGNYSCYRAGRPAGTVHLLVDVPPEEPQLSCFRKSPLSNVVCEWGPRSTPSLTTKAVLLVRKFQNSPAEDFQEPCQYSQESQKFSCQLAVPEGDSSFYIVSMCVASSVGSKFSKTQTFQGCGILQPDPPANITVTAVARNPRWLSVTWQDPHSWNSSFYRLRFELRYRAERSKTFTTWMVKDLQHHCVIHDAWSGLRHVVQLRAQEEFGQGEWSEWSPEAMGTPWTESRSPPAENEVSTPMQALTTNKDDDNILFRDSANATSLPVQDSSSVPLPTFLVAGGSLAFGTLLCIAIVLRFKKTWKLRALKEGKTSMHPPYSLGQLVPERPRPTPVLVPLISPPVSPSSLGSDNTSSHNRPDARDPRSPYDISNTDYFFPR
# B1: Fv3-M73 (H chain VH4-M73; L chain VL1-kappa) (antibody, V domains shown)
# VH: QVQLQESGPGLVKPSETLSLTCAVSGHSISHDHAWSWVRQPPGEGLEWIGFISYSGITNYNPTLQGRVTISRDNSKNTLYLQMNSLRAEDTAVYYCARSLARTTAMDYWGEGTLVTVSS
# VL: DIQMTQSPSSLSASVGDSVTITCQASRDISSHLNWYQQKPGKAPELLIYYGSHLLSGVPSRFSGSGSGTDFTFTISSLEAEDAATYYCGQGNRLPYTFGQGTKVEIER
# B2: Fv4-M73 (H chain VH3-M73; L chain VL3-kappa) (antibody, V domains shown)
# VH: B1 VH with T63S
# VL: B1 VL with R27T
# B3: Fv5-M83 (H chain VH5-M83; L chain VL5-kappa) (antibody, human IgG1, kappa, V domains shown)
# VH: B1 VH with H27Y, H31D, W35V, G66D, S99L, T103A, Y108V
# VL: B1 VL with R27Q, H32Y, H53E, L55E
# How the values were obtained:
# [1] = target: Soluble cynomolgus monkey IL-6 receptor (in the plasma of cynomolgus monkeys) (cynomolgus monkey); assay: percentage of free soluble cynomolgus IL-6 receptor in plasma after removal of IgG-bound receptor on Protein A; time course after a single 1 mg/kg i.v. dose in cynomolgus monkeys
# [2] = target: Soluble recombinant human IL-6 receptor (SR344) (human) (UniProt P08887); assay: statement in the discussion of the monkey study; no affinity of the control is printed
Binder,binding [1],binding [2]
B1,binds,–
B2,binds,–
B3,binds,binds

# Residue numbers refer to the chain shown, from its start. No constants are given. Whether binding was seen depends on the method and setting. A result given as binding can be weak or reduced; the word gives no strength.
